Assay results reported in US9598716B2, “Destructible surfactants and uses thereof” (Waters Technologies Corporation, priority 2002, dated 2017).

Tested on: trypsin
Test: Protein digestion by trypsin with or without ALS (MALDI-TOF, LC/MS)
Format: biochemical
Details: for Peptides found after trypsin digestion, With ALS (0.1%): not reduced, MALDI-TOF 900-3000 amu

## sodium 4-[(2-methyl-2 undecyl-1,3-dioxolan-4-yl)methyl]-1-propanesulfonate [ALS]
BSA (66K), easy, minutes, w/o ALS 16 peptides + intact protein
  Peptides found after trypsin digestion, With ALS (0.1%): 21 peptides
Bacteriorhodopsin (26K), very difficult, overnight, w/o ALS 1 peptide (weak signal) + intact protein
  Peptides found after trypsin digestion, With ALS (0.1%): 3 peptides
Lysozyme (16K), easy, minutes, w/o ALS 2 peptides + intact protein
  Peptides found after trypsin digestion, With ALS (0.1%): 6 peptides
Myogiobin (17K), moderate, minutes, w/o ALS 0 peptide + intact protein
  Peptides found after trypsin digestion, With ALS (0.1%): 12 peptides
Ovalbumine (43K), moderate, minutes, w/o ALS 0 peptides + intact protein
  Peptides found after trypsin digestion, With ALS (0.1%): 2 peptides
Ubiqutin (8K), difficult, minutes, w/o ALS 0 peptide + intact protein
  Peptides found after trypsin digestion, With ALS (0.1%): 9 peptides
Myoglobin solubilized with 0.1% ALS, LC/MS TIC, without ALS majority undigested after 9 hrs
  Time to complete tryptic digestion of myoglobin: ≤ 5 min
